No constants are given. Whether binding was seen depends on the method and setting. In cells and extracts the contact can be indirect. A result given as binding can be weak or reduced; the word gives no strength.
Columns and labels:
[1] = biological target: human TUBB4B p.P259S with a C-terminal ALFA tag (stable IMCD3 line) (human) (UniProt Q9NYC9); experiment: co-IP; TUBB4B-ALFA captured on ALFA SelectorPE beads from cleared lysates of stable IMCD3 lines (plates on ice 30 min to depolymerize microtubules; BRB80 pH 6.8, 10% glycerol, 0.2% Triton X-100, 1 mM GTP), 1 hour at RT, eluted with ALFA-elution peptide; immunoblot for α-tubulin and TBCD
[2] = biological target: human TUBB4B p.P259L with a C-terminal ALFA tag (stable IMCD3 line) (human) (UniProt Q9NYC9); experiment: as above

Sequences of proteins named here, by UniProt entry; tags and fusion partners are left off. A change or cut given only in a name is not applied to a line headed by its entry.
UniProt Q9NYC9: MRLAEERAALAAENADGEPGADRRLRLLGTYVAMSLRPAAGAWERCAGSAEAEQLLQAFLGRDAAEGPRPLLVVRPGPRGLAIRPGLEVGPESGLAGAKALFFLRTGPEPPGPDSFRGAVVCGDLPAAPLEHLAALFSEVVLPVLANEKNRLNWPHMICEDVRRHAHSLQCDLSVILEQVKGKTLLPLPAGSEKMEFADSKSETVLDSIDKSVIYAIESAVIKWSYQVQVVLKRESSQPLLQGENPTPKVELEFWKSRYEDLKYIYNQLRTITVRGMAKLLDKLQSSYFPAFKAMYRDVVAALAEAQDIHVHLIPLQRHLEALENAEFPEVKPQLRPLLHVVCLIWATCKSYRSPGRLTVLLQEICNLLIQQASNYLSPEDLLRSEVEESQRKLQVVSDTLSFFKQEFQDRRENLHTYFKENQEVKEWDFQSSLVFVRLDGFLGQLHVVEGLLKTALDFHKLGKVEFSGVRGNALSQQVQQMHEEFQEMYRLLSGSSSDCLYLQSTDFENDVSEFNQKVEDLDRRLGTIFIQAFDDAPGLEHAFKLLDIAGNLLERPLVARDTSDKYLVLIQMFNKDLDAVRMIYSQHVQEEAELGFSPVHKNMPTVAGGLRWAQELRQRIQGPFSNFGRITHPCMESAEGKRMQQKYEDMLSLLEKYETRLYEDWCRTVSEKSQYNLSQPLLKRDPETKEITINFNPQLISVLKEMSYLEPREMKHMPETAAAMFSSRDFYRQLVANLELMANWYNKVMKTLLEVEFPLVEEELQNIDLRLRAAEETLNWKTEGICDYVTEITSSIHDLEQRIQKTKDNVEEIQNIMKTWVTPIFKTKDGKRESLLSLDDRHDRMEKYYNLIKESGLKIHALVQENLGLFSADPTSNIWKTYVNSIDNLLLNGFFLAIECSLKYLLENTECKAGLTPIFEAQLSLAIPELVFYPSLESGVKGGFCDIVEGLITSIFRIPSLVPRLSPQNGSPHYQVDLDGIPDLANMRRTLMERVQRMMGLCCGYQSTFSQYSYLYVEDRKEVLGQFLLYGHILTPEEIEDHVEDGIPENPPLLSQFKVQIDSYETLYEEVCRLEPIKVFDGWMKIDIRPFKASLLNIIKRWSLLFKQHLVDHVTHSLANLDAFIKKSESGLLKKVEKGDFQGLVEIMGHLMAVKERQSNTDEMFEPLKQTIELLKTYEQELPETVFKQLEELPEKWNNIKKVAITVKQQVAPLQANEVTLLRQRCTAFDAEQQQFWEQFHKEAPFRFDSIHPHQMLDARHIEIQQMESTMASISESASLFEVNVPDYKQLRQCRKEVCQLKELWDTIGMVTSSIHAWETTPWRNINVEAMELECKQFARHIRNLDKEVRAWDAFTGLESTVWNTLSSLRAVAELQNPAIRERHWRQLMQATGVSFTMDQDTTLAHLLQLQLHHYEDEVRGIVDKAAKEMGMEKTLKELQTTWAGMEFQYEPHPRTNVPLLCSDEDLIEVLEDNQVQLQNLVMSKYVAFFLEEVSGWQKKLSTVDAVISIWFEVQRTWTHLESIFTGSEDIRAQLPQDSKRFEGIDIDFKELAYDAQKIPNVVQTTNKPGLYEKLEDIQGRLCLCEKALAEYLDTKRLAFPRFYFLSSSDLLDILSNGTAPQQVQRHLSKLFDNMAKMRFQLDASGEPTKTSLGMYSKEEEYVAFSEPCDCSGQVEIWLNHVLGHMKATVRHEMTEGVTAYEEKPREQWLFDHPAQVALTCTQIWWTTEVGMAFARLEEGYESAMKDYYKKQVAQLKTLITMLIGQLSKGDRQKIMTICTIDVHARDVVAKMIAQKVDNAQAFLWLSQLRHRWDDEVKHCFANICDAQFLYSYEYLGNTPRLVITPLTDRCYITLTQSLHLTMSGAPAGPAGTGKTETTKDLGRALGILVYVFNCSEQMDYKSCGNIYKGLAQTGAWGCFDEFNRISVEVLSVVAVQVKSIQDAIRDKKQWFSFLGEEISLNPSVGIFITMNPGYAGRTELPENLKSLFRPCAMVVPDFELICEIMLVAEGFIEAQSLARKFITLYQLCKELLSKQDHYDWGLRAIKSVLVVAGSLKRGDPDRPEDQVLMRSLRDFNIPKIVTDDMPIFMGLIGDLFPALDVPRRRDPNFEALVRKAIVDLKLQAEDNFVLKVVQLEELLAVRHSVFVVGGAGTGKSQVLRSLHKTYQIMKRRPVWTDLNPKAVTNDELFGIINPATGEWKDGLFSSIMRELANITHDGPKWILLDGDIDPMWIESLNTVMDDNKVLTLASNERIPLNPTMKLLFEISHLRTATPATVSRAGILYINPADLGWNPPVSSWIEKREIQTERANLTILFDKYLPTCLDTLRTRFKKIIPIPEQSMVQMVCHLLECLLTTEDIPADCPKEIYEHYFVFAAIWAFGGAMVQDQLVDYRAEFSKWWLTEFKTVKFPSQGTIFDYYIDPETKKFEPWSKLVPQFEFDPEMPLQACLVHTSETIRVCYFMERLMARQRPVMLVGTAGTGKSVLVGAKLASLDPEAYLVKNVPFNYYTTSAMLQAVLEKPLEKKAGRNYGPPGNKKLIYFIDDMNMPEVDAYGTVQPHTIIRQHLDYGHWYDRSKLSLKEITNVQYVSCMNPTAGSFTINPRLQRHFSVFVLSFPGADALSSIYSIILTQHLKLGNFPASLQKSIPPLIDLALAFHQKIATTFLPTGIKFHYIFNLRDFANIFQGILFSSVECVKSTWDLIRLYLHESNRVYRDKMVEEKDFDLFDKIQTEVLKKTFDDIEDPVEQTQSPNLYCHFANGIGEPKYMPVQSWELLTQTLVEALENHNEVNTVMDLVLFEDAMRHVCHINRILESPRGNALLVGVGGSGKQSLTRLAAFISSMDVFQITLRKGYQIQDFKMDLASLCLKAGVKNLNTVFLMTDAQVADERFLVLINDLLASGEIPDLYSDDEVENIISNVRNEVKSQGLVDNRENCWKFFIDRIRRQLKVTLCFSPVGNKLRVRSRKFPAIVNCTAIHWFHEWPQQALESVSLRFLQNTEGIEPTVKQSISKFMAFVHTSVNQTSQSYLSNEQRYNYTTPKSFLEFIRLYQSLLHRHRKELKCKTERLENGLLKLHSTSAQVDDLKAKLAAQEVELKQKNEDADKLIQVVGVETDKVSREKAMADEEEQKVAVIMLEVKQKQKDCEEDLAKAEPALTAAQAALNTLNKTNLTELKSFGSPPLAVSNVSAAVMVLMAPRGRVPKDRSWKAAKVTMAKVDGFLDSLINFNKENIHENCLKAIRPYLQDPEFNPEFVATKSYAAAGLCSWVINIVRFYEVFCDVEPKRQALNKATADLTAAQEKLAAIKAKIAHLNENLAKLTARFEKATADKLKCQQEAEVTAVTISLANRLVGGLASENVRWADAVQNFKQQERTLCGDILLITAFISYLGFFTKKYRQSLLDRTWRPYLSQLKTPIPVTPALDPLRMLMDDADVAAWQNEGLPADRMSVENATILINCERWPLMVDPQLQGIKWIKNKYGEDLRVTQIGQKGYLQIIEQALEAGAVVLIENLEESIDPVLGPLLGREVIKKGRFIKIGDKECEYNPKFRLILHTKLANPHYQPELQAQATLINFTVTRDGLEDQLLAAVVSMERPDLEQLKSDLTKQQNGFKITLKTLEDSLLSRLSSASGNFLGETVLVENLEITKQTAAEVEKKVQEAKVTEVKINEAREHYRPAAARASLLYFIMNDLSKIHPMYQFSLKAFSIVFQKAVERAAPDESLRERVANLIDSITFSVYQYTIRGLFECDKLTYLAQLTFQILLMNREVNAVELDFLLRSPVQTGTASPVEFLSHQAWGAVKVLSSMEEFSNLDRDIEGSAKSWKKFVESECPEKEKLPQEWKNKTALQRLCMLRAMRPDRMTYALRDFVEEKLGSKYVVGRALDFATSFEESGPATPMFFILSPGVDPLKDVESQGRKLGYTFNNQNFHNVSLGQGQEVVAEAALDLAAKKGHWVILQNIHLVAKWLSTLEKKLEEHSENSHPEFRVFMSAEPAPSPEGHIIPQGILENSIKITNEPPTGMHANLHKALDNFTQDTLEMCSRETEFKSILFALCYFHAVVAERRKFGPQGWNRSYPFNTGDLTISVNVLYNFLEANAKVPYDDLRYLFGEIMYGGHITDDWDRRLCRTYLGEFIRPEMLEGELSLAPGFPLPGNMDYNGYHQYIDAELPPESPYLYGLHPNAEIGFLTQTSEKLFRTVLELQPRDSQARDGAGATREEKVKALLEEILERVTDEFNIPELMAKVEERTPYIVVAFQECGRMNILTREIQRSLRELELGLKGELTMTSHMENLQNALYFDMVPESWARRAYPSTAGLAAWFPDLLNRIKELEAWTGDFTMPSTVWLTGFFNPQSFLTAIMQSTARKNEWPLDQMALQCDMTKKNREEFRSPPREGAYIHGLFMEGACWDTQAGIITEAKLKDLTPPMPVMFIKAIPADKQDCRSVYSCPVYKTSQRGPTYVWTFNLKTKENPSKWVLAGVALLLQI
UniProt Q8BYA0: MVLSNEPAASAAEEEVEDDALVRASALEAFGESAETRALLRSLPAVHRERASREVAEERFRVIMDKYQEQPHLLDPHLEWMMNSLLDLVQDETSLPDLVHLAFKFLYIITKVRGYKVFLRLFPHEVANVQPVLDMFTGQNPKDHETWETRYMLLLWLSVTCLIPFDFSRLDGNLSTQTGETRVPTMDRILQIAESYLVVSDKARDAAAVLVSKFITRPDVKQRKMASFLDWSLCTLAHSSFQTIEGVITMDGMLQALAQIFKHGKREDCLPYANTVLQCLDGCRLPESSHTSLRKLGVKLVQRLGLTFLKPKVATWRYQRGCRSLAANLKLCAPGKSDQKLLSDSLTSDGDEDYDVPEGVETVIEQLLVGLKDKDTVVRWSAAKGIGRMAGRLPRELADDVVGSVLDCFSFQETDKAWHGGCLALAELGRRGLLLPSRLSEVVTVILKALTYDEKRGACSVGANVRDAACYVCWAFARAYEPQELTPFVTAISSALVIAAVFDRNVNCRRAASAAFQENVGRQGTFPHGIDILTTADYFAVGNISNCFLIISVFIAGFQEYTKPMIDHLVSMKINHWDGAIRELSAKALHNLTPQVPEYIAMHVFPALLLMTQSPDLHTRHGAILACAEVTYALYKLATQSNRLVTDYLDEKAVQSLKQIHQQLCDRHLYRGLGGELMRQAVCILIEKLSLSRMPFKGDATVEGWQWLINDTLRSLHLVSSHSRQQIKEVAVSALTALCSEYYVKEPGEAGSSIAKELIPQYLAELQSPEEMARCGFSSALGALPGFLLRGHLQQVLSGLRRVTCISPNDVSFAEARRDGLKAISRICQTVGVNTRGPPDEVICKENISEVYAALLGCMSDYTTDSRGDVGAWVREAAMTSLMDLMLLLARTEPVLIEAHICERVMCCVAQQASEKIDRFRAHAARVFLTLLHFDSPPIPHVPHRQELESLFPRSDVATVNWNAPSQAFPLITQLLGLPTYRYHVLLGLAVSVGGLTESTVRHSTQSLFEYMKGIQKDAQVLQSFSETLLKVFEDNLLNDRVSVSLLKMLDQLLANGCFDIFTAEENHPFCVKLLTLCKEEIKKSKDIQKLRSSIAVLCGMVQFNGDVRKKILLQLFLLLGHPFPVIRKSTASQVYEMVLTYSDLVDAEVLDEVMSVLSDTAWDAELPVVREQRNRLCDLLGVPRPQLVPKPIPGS

- binding [1]: binds
- binding [2]: binds
Substance: TBCD (tubulin folding co-factor D), endogenous in IMCD3 cells (from UniProt Q8BYA0 1-1196)

— PMC7616230
